Assay results: PubChem BioAssay AID258 (DTP/NCI, 2004)
The list does not hold the whole screen: it covers a few groups of compounds. Other doses and runs of a compound may be missing. T/C is the treated group as % of the vehicle group. For survival time, the PubChem record calls one and a half times the control and up active, and a quarter to a half above the control has no call in these data; cut-offs in other NCI protocols can differ. Schedules are NCI's codes, read here as Q, the interval in days (D) or hours (H), X, the number of doses.

System: CD2F1 mice, L1210 leukemia sc, survival T/C
Assay: NCI In Vivo Anticancer Drug Screen. Data for tumor model L1210 Leukemia (subcutaneous) in CD2F1 (CDF1) mice
Details: T/C endpoint: median survival time, schedule: Q01DX009 (ip), vehicle: saline, higher T/C = longer survival
Method: The antitumor activity of compounds was measured in mice bearing transplantable tumors. Survival or tumor size were measured and the results are expressed as the measurement made in the treated group (T) divided by the measurement made in the vehicle treated control group (C). The tumor model used in this assay is L1210 Leukemia (subcutaneous) in CD2F1 (CDF1) mice

## CN(CCCl)CCCl
dose: 0.12 mg/kg/injection
  T/C: 98 % of control
dose: 0.25 mg/kg/injection
  T/C: 102 % of control
dose: 0.5 mg/kg/injection
  T/C: 102 % of control
